The record followed here is PubChem BioAssay AID547 (Emory University Molecular Libraries Screening Center, 2006).

Structures are written as SMILES. This list holds what a sample rich in hits left over. Activity calls are given as the source filed them. How the calls were made is not given here.

For the assay, the target named is Chaperone protein DnaK (Escherichia coli (strain K12)) (UniProt P0A6Y8). As to the kind of experiment: E. coli DnaK chaperone inhibitors, primary screen, luminescence, E. coli K12 (AID 547).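 Further: tested at 10 µM.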 The following applies: DnaK chaperone assay, luminescence read-out; active compounds read low.
Turning to `CN1C2CCC1CC(OC(=O)C(O)c1ccccc1)C2` (stereo unspecified), the luminescence is inactive: 3e+06 cps.
